In PubChem BioAssay AID1487 (National Center for Advancing Translational Sciences (NCATS), 2009) one finds AC50 data, which are given here for 35 compounds.

A short description of this experiment: qHTS Assay for Modulators of Lamin A Splicing. The conditions noted are these: HeLa LMNA splicing GFP/RFP minigene ratio, 48 h. In outline: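 Read-out is the ratio of GFP to DsRed2 object intensity, acquired by 488 nm laser-scanning cytometry on HeLa lamin A-EGFP minigene reporter cells. Compound incubation 48 hrs at 37 °C in Opti-MEM with 2% FBS; DMSO 0.5% final.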
(In general: qHTS replaces the single test concentration by a dilution series.)

Where [1] appears, read: measured here: RFP viability control channel.
The mark [2] stands for this setting: measured here: GFP splicing reporter channel.

The list shows a part of the results. These are further read-outs of the screen, such as a control signal, another cell line or another target. No call is given for them. Most of these compounds were active or inconclusive in the main read-out, so they are no random draw. The note in brackets gives the kind of curve behind each potency; many fits are weak.

As for `CCC(=O)Nc1c(S(=O)(=O)c2ccc(C)cc2)c2nc3ccccc3nc2n1C(C)c1ccccc1` (configuration not stated), the concentration at half-maximal activity (AC50) under setting [1] was 2.82 µM [rising, single point].

For `Cc1ccc2c(c1)C(=O)OC(C(=O)Nc1ccccc1C(=O)O)C2` (configuration not stated), under setting [1], the AC50 was 3.98 µM [falling, full curve, poor fit].

`COc1cccc2c1OC1(C)CC2N(C(=O)c2ccco2)C(=S)N1c1ccc(F)cc1` (configuration not stated): under setting [1], the AC50 is 6.31 µM [falling, single point].

In the case of `CCOc1ccc(-n2cc(-c3ccccc3)c3c(NC4CCCC4)ncnc32)cc1`, under setting [2], the AC50 was 0.0355 µM [falling, full curve, poor fit].

As to `COC(=O)c1cccc(NS(=O)(=O)c2ccc(OC)c(OC)c2)c1C`, the AC50 by setting is: under setting [2], 11.2 µM [rising, partial curve]; under setting [1], 14.1 µM [rising, partial curve].

For `Cc1ccc2cc(/C=C(\C#N)C(N)=O)c(N3CCCCC3)nc2c1`, the half-maximal activity concentration (AC50) was 11.2 µM [rising, partial curve] under setting [2] and 11.2 µM [rising, partial curve] under setting [1].

In the case of `COc1ccc(-n2cc(C(=O)O)c(=O)cc2C)cc1`, the AC50 under setting [2] is 2.24 µM [falling, full curve, poor fit].

Turning to `Cn1nc(-c2ccccc2)c(CSc2ccccc2Cl)c1Cl`, the AC50 under setting [2] is 20 µM [falling, single point].

Consider `O=C(Oc1c(Cl)cc(Cl)c2cccnc12)c1cccs1`, for which the AC50 under setting [1] is 12.6 µM [rising, partial curve, poor fit].

As to `O=C(NCCCN1CCN(c2cccc(Cl)c2)CC1)c1ccc2nc(Cc3ccccc3)oc2c1`, the AC50 was 20 µM [falling, partial curve] under setting [2] and 11.2 µM [falling, partial curve] under setting [1].

On to `O=C(O)c1cccnc1SCc1ccccc1Cl`, for which the AC50 under setting [2] was 11.2 µM [falling, single point].

With `Cc1ccc2nc(NC(=O)c3ccc(S(=O)(=O)N4CCC(C)CC4)cc3)sc2c1`, the AC50 under setting [2] was 0.631 µM [rising, single point].

Regarding `CCOC(=O)CCc1c(C)c2ccc(OCc3cc([N+](=O)[O-])ccc3OC)cc2oc1=O`, the concentration at half-maximal activity (AC50) under setting [2] is 20 µM [rising, single point].

For `COCCn1c(C)cc(/C=C2\NC(=S)N(C)C2=O)c1C`, the AC50 was 0.251 µM [rising, partial curve, poor fit] under setting [2] and 0.316 µM [rising, full curve] under setting [1].

For the compound `Cc1ccc(N(CC(O)Cn2c3ccccc3c3ccccc32)S(C)(=O)=O)c(C)c1` (configuration not stated), the AC50 under setting [1] is 7.08 µM [rising, partial curve].

With `CCOc1c(C=C(C#N)C#N)c2ccccc2n1CC`, the AC50 under setting [1] was 12.6 µM [rising, partial curve, poor fit].

For `CCc1nc2sc3c(c2c(=O)n1NC(=O)CCl)CCCC3`, the AC50 under setting [2] is 22.4 µM [falling, single point].

Consider `CCN(CCO)c1nc(SC)nc2c1sc1nc(-c3ccco3)c3c(c12)CCC3`, for which the AC50 is 17.8 µM [falling, single point] under setting [2] and 35.5 µM [falling, single point] under setting [1].

For the compound `Cc1ccnc(NC(=O)C2CCCN(S(=O)(=O)c3cnc[nH]3)C2)c1` (configuration not stated), the AC50 under setting [1] was 28.2 µM [rising, single point].

For `CCOC(=O)c1c(NC(=O)C2CCCO2)sc2c1CCC2` (configuration not stated), the AC50 reads like this: under setting [2], 14.1 µM [rising, partial curve]; under setting [1], 35.5 µM [rising, single point].

For the compound `O=C(CSc1nnc(-c2c[nH]c3ccccc23)o1)N(Cc1ccccc1)c1ccc(F)cc1`, the AC50 under setting [2] is 14.1 µM [rising, single point] and the AC50 under setting [1] was 12.6 µM [rising, partial curve].

Regarding `Cc1ccc(N(C)S(=O)(=O)c2ccc(-c3coc(C)n3)cc2)cc1`, under setting [2], the half-maximal activity concentration (AC50) is 35.5 µM [falling, single point].

With `NC(=O)N/N=C/c1cc(Br)ccc1OCC(=O)NCc1ccccc1`, the AC50 by setting is: under setting [2], 11.2 µM [rising, single point]; under setting [1], 20 µM [rising, single point].

As for `CN(c1ccc(C(=O)NCCSC(C)(C)C)cc1)S(=O)(=O)c1ccccc1`, the AC50 runs as follows: under setting [2], 10 µM [falling, partial curve, poor fit]; under setting [1], 0.1 µM [falling, partial curve, poor fit].

For the compound `CCOc1ccc(CCNC(=O)c2cc3sccc3n2CC)cc1OCC`, the AC50 is 2.82 µM [rising, single point] under setting [2] and 4.47 µM [rising, full curve] under setting [1].

With `CC(=O)NCCNC(=O)c1ccc(Sc2ccccc2)c([N+](=O)[O-])c1`, the concentration at half-maximal activity (AC50) under setting [2] is 0.00447 µM [falling, full curve, poor fit].

`O=C(COC(=O)c1cccnc1Nc1cccc(C(F)(F)F)c1)NCCN1C(=O)CSC1=O`: the concentration at half-maximal activity (AC50) reads like this: under setting [2], 35.5 µM [rising, single point]; under setting [1], 35.5 µM [rising, single point].

For `O=C(Cc1coc2ccc3ccccc3c12)Nc1nnc(C2CC2)s1`, the AC50 under setting [2] was 6.31 µM [rising, partial curve] and the concentration at half-maximal activity (AC50) under setting [1] was 3.16 µM [rising, full curve].

Consider `COc1ccc(CCNC(=O)c2cn3ccc(C)cc3n2)cc1OC`, for which the AC50 under setting [1] is 11.2 µM [falling, partial curve].

On to `CC(=O)O[C@@H]1C[C@H]2C(C)(C)C(=O)C=C[C@]2(C)[C@H]2CC[C@@]3(C)[C@H](c4ccoc4)OC(=O)[C@H]4O[C@]43[C@@]21C`, for which the AC50 under setting [1] is 28.2 µM [rising, single point].

Turning to `O=C(CSCc1ccc(Cl)cc1)Nc1ccc(S(=O)(=O)N2CCOCC2)cc1`, under setting [1], the half-maximal activity concentration (AC50) was 35.5 µM [rising, single point].

For `Cc1cc(NC(=O)c2cnn3cccnc23)n(-c2ccccc2)n1`, the AC50 under setting [1] was 2.82 µM [rising, partial curve, poor fit].

`COc1ccc(OC)c(-c2csc(NC(=O)CSc3ccc([N+](=O)[O-])cc3)n2)c1`: the AC50 under setting [2] is 35.5 µM [rising, single point].

Turning to `CCc1nnc(NC(=O)CSc2nnc(-c3c[nH]c4ccccc34)n2CC)s1`, the half-maximal activity concentration (AC50) under setting [1] is 14.1 µM [rising, single point].

For the compound `COc1ccc(NC(=O)c2c(NCc3ccc(OC)c(OC)c3OC)sc3c2CCC3)c(OC)c1`, the AC50 under setting [1] is 25.1 µM [falling, partial curve].

Broadly, the AC50 is the concentration at which the activity in the assay is half-maximal.
